Assay results as given in PMC6821156.
Results are given in words; binding and its absence hold for the method and conditions named. In cells and extracts the contact can be indirect. Some binding calls cover weakened binding; strength is not graded here. Sequences can lack the tags named with a protein.

By UniProt entry, the sequences of proteins in these tests, tags left out.
UniProt P26369: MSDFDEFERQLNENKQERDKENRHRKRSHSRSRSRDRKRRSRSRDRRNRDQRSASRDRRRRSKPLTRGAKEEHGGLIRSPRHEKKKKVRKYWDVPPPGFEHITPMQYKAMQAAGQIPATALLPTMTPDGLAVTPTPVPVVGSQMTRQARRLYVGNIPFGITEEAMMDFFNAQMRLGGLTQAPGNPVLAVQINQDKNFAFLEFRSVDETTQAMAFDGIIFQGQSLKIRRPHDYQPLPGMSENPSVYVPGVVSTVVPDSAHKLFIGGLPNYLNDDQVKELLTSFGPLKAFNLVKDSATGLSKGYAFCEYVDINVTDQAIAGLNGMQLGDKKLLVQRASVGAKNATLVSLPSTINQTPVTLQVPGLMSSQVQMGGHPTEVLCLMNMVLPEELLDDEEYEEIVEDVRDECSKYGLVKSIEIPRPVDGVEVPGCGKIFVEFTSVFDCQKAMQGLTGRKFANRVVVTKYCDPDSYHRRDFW

T1: Flag-tagged U2AF1a (endogenous, U2af1a-only Tsc1-/- MEF cell line) (mouse (endogenous in Tsc1-/- MEFs)) (UniProt Q9D883)
T1 sequence: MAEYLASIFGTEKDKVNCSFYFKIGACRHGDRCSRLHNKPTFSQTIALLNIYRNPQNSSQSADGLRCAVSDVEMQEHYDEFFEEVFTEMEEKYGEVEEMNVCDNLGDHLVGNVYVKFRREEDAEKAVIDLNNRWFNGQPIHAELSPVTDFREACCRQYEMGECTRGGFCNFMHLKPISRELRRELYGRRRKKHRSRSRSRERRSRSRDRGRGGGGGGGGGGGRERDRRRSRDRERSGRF

T2: U2AF1b-Flag (expressed in HEK293) (UniProt Q01081)
T2 sequence: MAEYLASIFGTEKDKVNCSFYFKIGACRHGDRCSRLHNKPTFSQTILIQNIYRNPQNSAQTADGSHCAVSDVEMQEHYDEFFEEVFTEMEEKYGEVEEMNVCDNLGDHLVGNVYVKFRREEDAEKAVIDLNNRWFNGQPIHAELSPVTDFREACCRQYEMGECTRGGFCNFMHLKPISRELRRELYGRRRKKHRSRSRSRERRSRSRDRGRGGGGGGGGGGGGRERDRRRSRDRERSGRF


Experiments:
[1] = target: T1, Flag-tagged U2AF1a (endogenous, U2af1a-only Tsc1-/- MEF cell line) (mouse (endogenous in Tsc1-/- MEFs)); experiment: co-IP; anti-Flag immunoprecipitation from total cellular extracts of Flag-tagged U2AF1 isoform-specific Tsc1-/- MEF cell lines, western blot
[2] = target: T2, U2AF1b-Flag (expressed in HEK293); experiment: co-IP; MBNL2 co-expressed with U2AF1a-Flag or U2AF1b-Flag in HEK293; Flag-IP from nuclear fractions in the absence or presence of RNase A; blots with anti-Flag and anti-MBNL2

| binding [1] | binding [2] | Molecule |
| --- | --- | --- |
| binds |  | U2AF2 (from UniProt P26369 1-475) |
|  | binds | MBNL2 (expressed in HEK293) (protein, UniProt Q5VZF2 1-373) MALNVAPVRDTKWLTLEVCRQFQRGTCSRSDEECKFAHPPKSCQVENGRVIACFDSLKGRCSRENCKYLHPPTHLKTQLEINGRNNLIQQKTAAAMLAQQMQFMFPGTPLHPVPTFPVGPAIGTNTAISFAPYLAPVTPGVGLVPTEILPTTPVIVPGSPPVTVPGSTATQKLLRTDKLEVCREFQRGNCARGETDCRFAHPADSTMIDTSDNTVTVCMDYIKGRCMREKCKYFHPPAHLQAKIKAAQHQANQAAVAAQAAAAAATVMAFPPGALHPLPKRQALEKSNGTSAVFNPSVLHYQQALTSAQLQQHAAFIPTGSVLCMTPATSIDNSEIISRNGMECQESALRITKHCYCTYYPVSSSIELPQTAC |
